The list shows a part of the results. Repeats are few or missing, and single values can be far off.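 The apoptosis fraction was the count of cleaved-PARP antibody-stained nuclei relative to all DNA-stained nuclei, imaged in 1,536-well plates. Screening doses were set so most cells survived, and baseline and induced cleaved-PARP levels vary greatly across cell lines.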
Tested on: LB2518-MEL
Experiment: cleaved PARP positive nuclei fraction relative to DMSO control; melanoma cells; higher = more apoptosis
Details: library dose: low library concentration; 72 h

Row | Structure (SMILES) | cleaved PARP positive nuclei fraction [%]
1 | O=C(O)c1ccc(-c2c[nH]c3ncc(-c4ccccc4)cc23)cc1C1CCCC1 + Cc1cc(SCc2sc(-c3ccc(C(F)(F)F)c(F)c3)nc2C)ccc1OCC(=O)O [GW0742] (first compound 0.16 µM, partner dose 2 µM) | 82.1
2 | NC(=O)Nc1cc(-c2cccc(F)c2)sc1C(=O)N[C@H]1CCCNC1 + O=C(Oc1ccc([N+](=O)[O-])cc1)N1CCC(C(O)(c2ccc3c(c2)OCO3)c2ccc3c(c2)OCO3)CC1 [JZL184] (first compound 0.02 µM, partner dose 1 µM) | 93.2
3 | O=C(O)C(=O)Nc1sc2c(c1C(=O)O)CCNC2 + O=C(Oc1ccc([N+](=O)[O-])cc1)N1CCC(C(O)(c2ccc3c(c2)OCO3)c2ccc3c(c2)OCO3)CC1 [JZL184] (first compound 1.66667 µM, partner dose 1 µM) | 161
4 | COc1ccc(-c2ccc3c(N4CCOCC4)nc(N4C[C@@H](C)O[C@@H](C)C4)nc3n2)cc1CO + Cc1cc(SCc2sc(-c3ccc(C(F)(F)F)c(F)c3)nc2C)ccc1OCC(=O)O [GW0742] (first compound 0.02 µM, partner dose 2 µM) | 40
5 | O=C(CCCCCCC(=O)Nc1ccccc1)NO [vorinostat] + Cc1cc(SCc2sc(-c3ccc(C(F)(F)F)c(F)c3)nc2C)ccc1OCC(=O)O [GW0742] (first compound 0.08 µM, partner dose 2 µM) | 86.7
6 | COC(=O)c1sccc1S(=O)(=O)Nc1ccc(Nc2ccccc2)cc1OC + O=C(Oc1ccc([N+](=O)[O-])cc1)N1CCC(C(O)(c2ccc3c(c2)OCO3)c2ccc3c(c2)OCO3)CC1 [JZL184] (first compound 1 µM, partner dose 1 µM) | 154
7 | Nc1cccc2c1CN(C1CCC(=O)NC1=O)C2=O (stereo not drawn) [lenalidomide] + O=C(Oc1ccc([N+](=O)[O-])cc1)N1CCC(C(O)(c2ccc3c(c2)OCO3)c2ccc3c(c2)OCO3)CC1 [JZL184] (first compound 1 µM, partner dose 1 µM) | 139
8 | Cn1cncc1[C@@](N)(c1ccc(Cl)cc1)c1ccc2c(c1)c(-c1cccc(Cl)c1)cc(=O)n2C [tipifarnib] + C/C(O)=C(\C#N)C(=O)Nc1cc(Br)ccc1Br [LFM-A13] (first compound 0.01 µM, partner dose 2 µM) | 198
9 | COc1cc(Nc2ncc(F)c(Nc3ccc4c(n3)NC(=O)C(C)(C)O4)n2)cc(OC)c1OC [Tamatinib] + C/C(O)=C(\C#N)C(=O)Nc1cc(Br)ccc1Br [LFM-A13] (first compound 0.4 µM, partner dose 2 µM) | 77.9

Another view of part of the listing above.

| Row | Structure (SMILES) | cleaved PARP positive nuclei fraction [%] |
| --- | --- | --- |
| 8 | Cn1cncc1[C@@](N)(c1ccc(Cl)cc1)c1ccc2c(c1)c(-c1cccc(Cl)c1)cc(=O)n2C [tipifarnib] + C/C(O)=C(\C#N)C(=O)Nc1cc(Br)ccc1Br [LFM-A13] (first compound 0.01 µM, partner dose 2 µM) | 198 |
| 9 | COc1cc(Nc2ncc(F)c(Nc3ccc4c(n3)NC(=O)C(C)(C)O4)n2)cc(OC)c1OC [Tamatinib] + C/C(O)=C(\C#N)C(=O)Nc1cc(Br)ccc1Br [LFM-A13] (first compound 0.4 µM, partner dose 2 µM) | 77.9 |

Tested on: LOXIMVI
Experiment: as above
Details: library dose: low library concentration; 72 h

Row | Structure (SMILES) | cleaved PARP positive nuclei fraction [%]
10 | C[As](C)SC[C@H](NC(=O)CC[C@H](N)C(=O)O)C(=O)NCC(=O)O [Darinaparsin] + c1cc(-c2cnn3cc(-c4ccc(OCCN5CCCCC5)cc4)cnc23)ccn1 [Dorsomorphin] (first compound 0.4 µM, partner dose 0.4 µM) | 71.6
11 | Cc1nc(Nc2ncc(C(=O)Nc3c(C)cccc3Cl)s2)cc(N2CCN(CCO)CC2)n1 [dasatanib] + Cc1cc(SCc2sc(-c3ccc(C(F)(F)F)c(F)c3)nc2C)ccc1OCC(=O)O [GW0742] (first compound 0.004 µM, partner dose 2 µM) | 184
12 | C/C(O)=C(\C#N)C(=O)Nc1cc(Br)ccc1Br + Oc1nc(-c2ccc(C(F)(F)F)cc2)nc2c1CSCC2 [XAV939] (first compound 2 µM, partner dose 2 µM) | 163
13 | O=C(Nc1cccc(Cl)c1)Nc1ncc(CCNc2ncnc3ccsc23)s1 + C/C(O)=C(\C#N)C(=O)Nc1cc(Br)ccc1Br [LFM-A13] (first compound 0.0008 µM, partner dose 2 µM) | 48.2
14 | Cc1ccc(NC(=O)c2cccc(N(C)C)c2)cc1NC(=O)c1ccc(O)cc1 + O=C(Oc1ccc([N+](=O)[O-])cc1)N1CCC(C(O)(c2ccc3c(c2)OCO3)c2ccc3c(c2)OCO3)CC1 [JZL184] (first compound 2 µM, partner dose 1 µM) | 74.8
15 | O=C(Oc1ccc([N+](=O)[O-])cc1)N1CCC(C(O)(c2ccc3c(c2)OCO3)c2ccc3c(c2)OCO3)CC1 + CC(C)CCN1c2nc(Nc3cc(F)c(O)c(F)c3)ncc2N(C)C(=O)C1C [BID1870] (first compound 1 µM, partner dose 0.2 µM) | 52.4
16 | OCCn1cc(-c2cnc3nnn(Cc4ccc5ncccc5c4)c3n2)cn1 + C/C(O)=C(\C#N)C(=O)Nc1cc(Br)ccc1Br [LFM-A13] (first compound 1 µM, partner dose 2 µM) | 42.7
17 | C[As](C)SC[C@H](NC(=O)CC[C@H](N)C(=O)O)C(=O)NCC(=O)O [Darinaparsin] + O=C1NC(=O)/C(=C/c2ccc(-c3ccc(F)cc3O)o2)S1 [AS252424] (first compound 0.4 µM, partner dose 1 µM) | 107
18 | Nc1cccc2c1CN(C1CCC(=O)NC1=O)C2=O (stereo not drawn) [lenalidomide] + Cc1cc(SCc2sc(-c3ccc(C(F)(F)F)c(F)c3)nc2C)ccc1OCC(=O)O [GW0742] (first compound 1 µM, partner dose 2 µM) | 80.5
19 | C/C(O)=C(\C#N)C(=O)Nc1cc(Br)ccc1Br + CCCCCCCCCCCC1=C(O)C(=O)C=C(O)C1=O [Embelin] (first compound 2 µM, partner dose 1.2 µM) | 83.1
20 | Cc1cc(SCc2sc(-c3ccc(C(F)(F)F)c(F)c3)nc2C)ccc1OCC(=O)O + Cn1cc(/C=C2\C(=O)Nc3cccnc32)c2ccccc21 [GW441756] (first compound 2 µM, partner dose 0.4 µM) | 62.8
21 | C[As](C)SC[C@H](NC(=O)CC[C@H](N)C(=O)O)C(=O)NCC(=O)O [Darinaparsin] + Cc1cc([N+](=O)[O-])ccc1NS(=O)(=O)c1cc(Cl)ccc1Cl [FH535] (first compound 0.4 µM, partner dose 1 µM) | 36.3
22 | C=CCn1c(=O)c2cnc(Nc3ccc(N4CCN(C)CC4)cc3)nc2n1-c1cccc(C(C)(C)O)n1 + O=C(Oc1ccc([N+](=O)[O-])cc1)N1CCC(C(O)(c2ccc3c(c2)OCO3)c2ccc3c(c2)OCO3)CC1 [JZL184] (first compound 0.02 µM, partner dose 1 µM) | 75.3
23 | C/C(O)=C(\C#N)C(=O)Nc1cc(Br)ccc1Br + c1cc(-c2cnn3cc(-c4ccc(OCCN5CCCCC5)cc4)cnc23)ccn1 [Dorsomorphin] (first compound 2 µM, partner dose 0.4 µM) | 135
24 | C/C(O)=C(\C#N)C(=O)Nc1cc(Br)ccc1Br + O=C(Oc1ccc([N+](=O)[O-])cc1)N1CCC(C(O)(c2ccc3c(c2)OCO3)c2ccc3c(c2)OCO3)CC1 [JZL184] (first compound 2 µM, partner dose 1 µM) | 77.6
25 | Cc1cc(SCc2sc(-c3ccc(C(F)(F)F)c(F)c3)nc2C)ccc1OCC(=O)O + O=C1NC(=O)/C(=C/c2ccc(-c3ccc(F)cc3O)o2)S1 [AS252424] (first compound 2 µM, partner dose 1 µM) | 173
26 | CCc1ccc(CCOc2ccc(CC3SC(=O)NC3=O)cc2)nc1 (stereo not drawn) [pioglitazone] + Cc1cc(SCc2sc(-c3ccc(C(F)(F)F)c(F)c3)nc2C)ccc1OCC(=O)O [GW0742] (first compound 2 µM, partner dose 2 µM) | 44.7
27 | COc1ccc2c(c1)CCC1C2CCC2(C)C(NCCCCCCN3C(=O)C=CC3=O)CCC12 (stereo not drawn) + O=C(Oc1ccc([N+](=O)[O-])cc1)N1CCC(C(O)(c2ccc3c(c2)OCO3)c2ccc3c(c2)OCO3)CC1 [JZL184] (first compound 0.4 µM, partner dose 1 µM) | 44.6
28 | Cc1cc(SCc2sc(-c3ccc(C(F)(F)F)c(F)c3)nc2C)ccc1OCC(=O)O + O=C(Oc1ccc([N+](=O)[O-])cc1)N1CCC(C(O)(c2ccc3c(c2)OCO3)c2ccc3c(c2)OCO3)CC1 [JZL184] (first compound 2 µM, partner dose 1 µM) | 158
29 | C/C(O)=C(\C#N)C(=O)Nc1cc(Br)ccc1Br + Cc1cc([N+](=O)[O-])ccc1NS(=O)(=O)c1cc(Cl)ccc1Cl [FH535] (first compound 2 µM, partner dose 1 µM) | 58.9
30 | NCC(=O)Nc1ccc(-n2nc(C(F)(F)F)cc2-c2ccc3c(ccc4ccccc43)c2)cc1 + O=C(Oc1ccc([N+](=O)[O-])cc1)N1CCC(C(O)(c2ccc3c(c2)OCO3)c2ccc3c(c2)OCO3)CC1 [JZL184] (first compound 1 µM, partner dose 1 µM) | 54.8
31 | O=C(O)C(=O)Nc1sc2c(c1C(=O)O)CCNC2 + C/C(O)=C(\C#N)C(=O)Nc1cc(Br)ccc1Br [LFM-A13] (first compound 1.66667 µM, partner dose 2 µM) | 36.9
32 | COc1ccc2c(c1)CCC1C2CCC2(C)C(NCCCCCCN3C(=O)C=CC3=O)CCC12 (stereo not drawn) + Cc1cc(SCc2sc(-c3ccc(C(F)(F)F)c(F)c3)nc2C)ccc1OCC(=O)O [GW0742] (first compound 0.4 µM, partner dose 2 µM) | 45.2
33 | Cc1ccc(NC(=O)c2cccc(N(C)C)c2)cc1NC(=O)c1ccc(O)cc1 + C/C(O)=C(\C#N)C(=O)Nc1cc(Br)ccc1Br [LFM-A13] (first compound 2 µM, partner dose 2 µM) | 188

— the supplement of paper PMC4604168 (melanoma cell lines)
